This note sets out measurements from article PMC7819943, “Rice protein-binding microarrays: a tool to detect cis-acting elements near promoter regions in rice”.

This is one part of the list.

The target in this test is T1, OsSMF1 (Oryza sativa, UniProt Q6ZLB0 1-436).
T1 sequence: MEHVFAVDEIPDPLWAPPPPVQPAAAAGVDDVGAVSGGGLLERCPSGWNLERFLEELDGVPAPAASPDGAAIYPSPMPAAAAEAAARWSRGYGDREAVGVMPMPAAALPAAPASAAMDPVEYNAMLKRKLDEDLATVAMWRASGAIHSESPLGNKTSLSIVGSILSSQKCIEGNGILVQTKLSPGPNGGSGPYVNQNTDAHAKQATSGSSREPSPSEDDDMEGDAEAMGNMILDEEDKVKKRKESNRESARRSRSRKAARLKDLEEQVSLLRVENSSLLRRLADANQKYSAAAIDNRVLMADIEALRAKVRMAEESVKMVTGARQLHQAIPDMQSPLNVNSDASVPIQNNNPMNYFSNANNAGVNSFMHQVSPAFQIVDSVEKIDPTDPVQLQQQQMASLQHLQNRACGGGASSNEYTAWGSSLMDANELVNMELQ
The experiment in a line: protein-binding microarray (RPBM); PBS, 2% BSA, 51.3 ng/ul salmon testes DNA, 50 uM zinc acetate, 200 nM TF, 25 C, 1 h; high values mean tight binding. The settings on record: protein: recombinant; tags: N-terminal polyhistidine and DsRed monomer fusion (pET32a); chain copies: 2; label: CyDye5-dUTP incorporated in the synthesized complementary strand; 3' TTTTT single-stranded linker to array surface; dsDNA, one strand shown. The procedure, abridged: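 An Axon 4000B scanner gave the binding signal as per-feature fluorescence intensity in arbitrary units. This followed washing of a custom Agilent array that had been incubated for 1 h at 25 °C with 200 nM protein in PBS, 2% BSA, salmon testes DNA and 50 µM zinc acetate. The proteins were transcription factors fused at the N-terminus to polyhistidine and DsRed, expressed in E. coli BL21-CodonPlus and purified on Ni–NTA.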
Consider “GATACATCAAGAGTCATGACACAAACTAAATGTGTAGTATCGGAGTCACCTAGTGCAG”, for which the binding signal was 3680 fluorescence intensity (a.u.).
In the case of “CTACTTCCAAATTCAGCTCCAGCTCACCACGCTGGAGAAACGGAGTCACCTAGTGCAG” it was 4180 fluorescence intensity (a.u.); in that of “GACGCCGTCTCCTACCAGGTCAGCCAAGCCACTATTCCCTCGGAGTCACCTAGTGCAG”, 3330 fluorescence intensity (a.u.).
In the case of “CGGCGGCGCGGTCTCCCTCGTGACGTAGCTCGGCGGCGCGCGGAGTCACCTAGTGCAG” it was 8300 fluorescence intensity (a.u.); in that of “TGCTCAGGGAGGTGGAGGGGCGCGGCGGAGCGAGCCGAGGCGGAGTCACCTAGTGCAG”, 3950 fluorescence intensity (a.u.).
With “ACTATTTGCCACCTTTGCCTACGTGGCGAACCAACGTGGCCGGAGTCACCTAGTGCAG”, the binding signal is 28100 fluorescence intensity (a.u.).
To “AGTACTCCAACTCATACTACTACTAATCTCTCTCTCTTTCCGGAGTCACCTAGTGCAG” belongs 3950 fluorescence intensity (a.u.); to “ACAAGGGTAGTCAGCATCCATTGTGACGTGGTCCATTGACCGGAGTCACCTAGTGCAG”, 14100 fluorescence intensity (a.u.).
Consider “TTGCCAGTTGCCATTGCAATTACATGTACTCCACCTACAACGGAGTCACCTAGTGCAG”, for which the binding signal was 3560 fluorescence intensity (a.u.).
To “GAACTAGTGATCGCCCCTCCGGCTGACGCCGACGGTAGCGCGGAGTCACCTAGTGCAG” belongs 5120 fluorescence intensity (a.u.); to “CATCCCTAGTCGGCGTCTTGTCATCGCCGCCCCAATCTCGCGGAGTCACCTAGTGCAG”, 4430 fluorescence intensity (a.u.).
In the case of “CCAAACTGTAACGCGTCAGCCTATACCTATCGACTTGCTGCGGAGTCACCTAGTGCAG” it was 3730 fluorescence intensity (a.u.).
To “GGTTTAGAACGAGACGCATGACGATATCAATCACCCACCCCGGAGTCACCTAGTGCAG” belongs 3340 fluorescence intensity (a.u.); to “TACTATCACACCACGCGTCTACGTATGATCCTACTGCTTACGGAGTCACCTAGTGCAG”, 4290 fluorescence intensity (a.u.).
In the case of “GCGCTCGCCGGAGGAGGAGGAGGAGGATCTTGATTTGTGTCGGAGTCACCTAGTGCAG”, the binding signal was 3460 fluorescence intensity (a.u.).
In the case of “CCGCCTCCCGATCCCCTCCGCGTCACGGCCTCACTCGTCGCGGAGTCACCTAGTGCAG” it was 7900 fluorescence intensity (a.u.).
To “ATTGTAATTCTCTGTTGTTTAGCATATATTAAGGTTTGAGCGGAGTCACCTAGTGCAG” belongs 4280 fluorescence intensity (a.u.); to “CCAATTGCTTACGTACGACTACTCCTCCACGCCCCAAATCCGGAGTCACCTAGTGCAG”, 4360 fluorescence intensity (a.u.); to “GTACTGCGGTGGATTTTGGACACGTGGGCTTGACGTATTCCGGAGTCACCTAGTGCAG”, 15300 fluorescence intensity (a.u.).
To “ATATGGATCCCAATGGACGCGTCGTCATGCCAATTGGGCCCGGAGTCACCTAGTGCAG” belongs 3630 fluorescence intensity (a.u.); to “CTGCAGATGACATCCGTATTGCTGACTGTACTGTAGCAGCCGGAGTCACCTAGTGCAG”, 15200 fluorescence intensity (a.u.).
Take “CAGCCTCCCGTCGCTGCCGGCGTGGCGCCCACCCTAGGACCGGAGTCACCTAGTGCAG”: the binding signal was 4720 fluorescence intensity (a.u.).
As to “CACTCGCCAGGAGGAGCCAGCCGACGAGGGCGCAGCGGCGCGGAGTCACCTAGTGCAG”, the binding signal was 3540 fluorescence intensity (a.u.).
To “TTTACTATACTATTAATATATGGTCCCACCTGTCATACACCGGAGTCACCTAGTGCAG” belongs 3730 fluorescence intensity (a.u.); to “TCAGTTGACACACAAGGTTCAGATGTGAAGAGATCCTCATCGGAGTCACCTAGTGCAG”, 23300 fluorescence intensity (a.u.); to “CATGGACGATCGATGGACGGCGGAAGACCTCACCGGCCTGCGGAGTCACCTAGTGCAG”, 22200 fluorescence intensity (a.u.).
In the case of “CCTTGGACTCGCCACCGCCACCTCCTCCAATCGCATTCTCCGGAGTCACCTAGTGCAG”, the binding signal is 3240 fluorescence intensity (a.u.).
In the case of “ATAGTGGTGAGTATGCGCGTGTTATAGACGTATGCGTTTGCGGAGTCACCTAGTGCAG” it was 3530 fluorescence intensity (a.u.).
Regarding “GACGACACCGGCGGTGAAGAGCTGGAGCATGACGAGCGCCCGGAGTCACCTAGTGCAG”, the binding signal was 3750 fluorescence intensity (a.u.).
To “ATGGGTGATTTCACTGACGTGGCATCCTAGTCAGCCAAAACGGAGTCACCTAGTGCAG” belongs 20700 fluorescence intensity (a.u.); to “ACCGTTGAATTTTAGATATAAGTTTGACTATTCATCTTATCGGAGTCACCTAGTGCAG”, 3990 fluorescence intensity (a.u.).
To “CCGTATATCCGCTTACGTCACCTCGCTGCTTGGCCTTGTTCGGAGTCACCTAGTGCAG” belongs 18800 fluorescence intensity (a.u.); to “GTTTATATGGGTTAGATGTAGCCATGTCACCTCTTTCTAACGGAGTCACCTAGTGCAG”, 3150 fluorescence intensity (a.u.); to “TATCCGACAGACGCGCCGTGTCAGCGAGCTCCTCGACCGACGGAGTCACCTAGTGCAG”, 3920 fluorescence intensity (a.u.).
On to “TCTAGTTTCTTCGATCTGACTAGATCTCAACTCTGAATAACGGAGTCACCTAGTGCAG”, for which the binding signal was 4080 fluorescence intensity (a.u.).
For the sequence “ATGGAGTCTGATGCTGAAGAAATCAATCATCAGTACTAGTCGGAGTCACCTAGTGCAG”, the binding signal was 3340 fluorescence intensity (a.u.).
With “CCCTCACCTGGCCCACCTGTCAGCCACGTCGGGGTATCCGCGGAGTCACCTAGTGCAG”, the binding signal was 8680 fluorescence intensity (a.u.).
To “AAGATTTGCTGGGAGGGTGGGGTGGGGATTAGTCCCTAAACGGAGTCACCTAGTGCAG” belongs 4630 fluorescence intensity (a.u.); to “CACTTGGTTGCTGTTCATCATCGATCATCATTTGGCAATGCGGAGTCACCTAGTGCAG”, 3870 fluorescence intensity (a.u.).
To “GAGTCGGGGTGGGCTGGCGGTCGAGATGACGCAAGCGACGCGGAGTCACCTAGTGCAG” belongs 24800 fluorescence intensity (a.u.); to “TTGTTTGTGACTGACACTGGTGGAGATGACGGCTGGAATCCGGAGTCACCTAGTGCAG”, 3230 fluorescence intensity (a.u.).
With “AGCTTCCAGCCACCGGCCACCGCCATCATCATCCTCGCGACGGAGTCACCTAGTGCAG”, the binding signal is 3370 fluorescence intensity (a.u.).
In the case of “AAGCTAAAGGAGGAAGCAATCCAGATCACCTGATGGCACACGGAGTCACCTAGTGCAG” it was 3520 fluorescence intensity (a.u.).
In the case of “GAGTAGGTCTCATGAATCATCCCTTGCGCGTCACTAGTTACGGAGTCACCTAGTGCAG” it was 4860 fluorescence intensity (a.u.).
In the case of “CCTTAATTACATTGTATATAGTGATGTATGATTTATTTTACGGAGTCACCTAGTGCAG” it was 3280 fluorescence intensity (a.u.); in that of “AATTAATTGGAAAGTTCATTTGGGCCACGTGCCAAATACACGGAGTCACCTAGTGCAG”, 4140 fluorescence intensity (a.u.).
For “GCATCACACGCCACTCTTACACGCAGGAACACCTAGGTTGCGGAGTCACCTAGTGCAG”, the binding signal was 3900 fluorescence intensity (a.u.).
Turning to “CATTTCATCTACCTCTTCTTGCATCAGCAGCAGTGGTCAGCGGAGTCACCTAGTGCAG”, the binding signal was 3480 fluorescence intensity (a.u.).
“TTGCCTCCACGCATGATGTCATAATTGTTGTCAAACATGACGGAGTCACCTAGTGCAG”: the binding signal was 7190 fluorescence intensity (a.u.).
In the case of “AACTTAAAGACACGGAAAGAAAGAAAGCTGACCTTAGCAGCGGAGTCACCTAGTGCAG” it was 23300 fluorescence intensity (a.u.); in that of “TCCTCACCTACGGCGCCCGCGACATCGTCTTCGCGCCGTTCGGAGTCACCTAGTGCAG”, 3280 fluorescence intensity (a.u.); in that of “TCATCGCCATCTCGAATTCTCGATGGATCGATCGTTAATTCGGAGTCACCTAGTGCAG”, 32900 fluorescence intensity (a.u.).
To “TTAATCCGCCATTAGTACATGTGGGTTACTATAGCACTTACGGAGTCACCTAGTGCAG” belongs 19100 fluorescence intensity (a.u.); to “TATGCAAAATGATATATCGGACCCACGTCACGATGGAGGACGGAGTCACCTAGTGCAG”, 6810 fluorescence intensity (a.u.).
